Here are results for one molecule from article PMC12667501.

No constants are given. Whether binding was seen depends on the method and setting. Binding seen in cells or lysates may run through a third protein. Binding can be weak; no strength is given. Sequences can lack the tags named with a protein.

The target of experiment [1] is Flag-tagged Btrc isoform △E2&3. Put plainly: co-IP; Myc-tagged Ube2r2 and Flag-tagged Btrc isoforms cotransfected into HEK293T cells for 48 h; lysates precipitated with anti-Flag antibody; Western blotting with anti-Myc and anti-Flag.
The target in experiment [2] is Flag-tagged Btrc isoform △E3. Described as above.

B1: Myc-tagged Ube2r2 (enzyme, UniProt Q6ZWZ2 1-238)
chain: MAQQQMTSSQKALMLELKSLQEEPVEGFRITLVDESDLYNWEVAIFGPPNTLYEGGYFKAHIKFPIDYPYSPPTFRFLTKMWHPNIYENGDVCISILHPPVDDPQSGELPSERWNPTQNVRTILLSVISLLNEPNTFSPANVDASVMFRKWRDSKGKDKEYAEIIRKQVSATKAEAEKDGVKVPTTLAEYCIKTKVPSNDNSSDLLYDDLYDDDIDDEDEEEEDADCYDDDDSGNEES
On to B1, for which the binding result in experiment [1] and in experiment [2] was “binds” throughout.
